# Experimental data as given in patent publication US6110122A, “Breath test for assessing hepatic function” (priority 1999, dated 2000).
# Several values for one entry are separate records, joined by “and”; a condition that tells them apart may be missing. Equal values may be shown once.
# Tested on: hepatic mitochondrial function
# Assay: MBT in patients with liver disease, reproducibility and correlation with Child-Pugh score
# [1] = threshold 4% (maximum % oxidized/h)
smiles,measurement,setting,value
"CSCC[C@H](N)C(=O)O [methionine, L-1-^13 C-methionine]",difference between two independently administered tests,20 volunteers and 22 patients with liver disease,11%
same,correlation r between MBT test 1 and test 2,all participants (healthy controls and liver patients combined),0.97
same,difference between controls and CP A (in words),controls vs CP A patients,no significant difference
same,correlation r of reproducibility in liver patients,"liver patients, MBT 1 vs MBT 2",0.93
same,correlation r of MBT with CP score,"liver patients, p<0.001",-0.81
same,accuracy of MBT,[1],95%
same,specificity of MBT,[1],96%
same,sensitivity of MBT,"threshold 4% (maximum % oxidized/h), CP B/C vs controls/CP A",94% and 93%
